Results as given in the supplement of paper PMC3334620.
The full ranking holds about 33,000 sequences; the median of “E-score (-0.5 to 0.5)” is about -0.015, and the highest 2% start at about 0.3. Some of the results follow.

target: T1, Abf1 (UniProt P14164); assay: PBM E-score (8-mer binding enrichment) (E-score (-0.5 to 0.5)); higher = stronger / more preferred TF binding; details: protein concentration: 200 nM; construct: GST-full length
T1 sequence: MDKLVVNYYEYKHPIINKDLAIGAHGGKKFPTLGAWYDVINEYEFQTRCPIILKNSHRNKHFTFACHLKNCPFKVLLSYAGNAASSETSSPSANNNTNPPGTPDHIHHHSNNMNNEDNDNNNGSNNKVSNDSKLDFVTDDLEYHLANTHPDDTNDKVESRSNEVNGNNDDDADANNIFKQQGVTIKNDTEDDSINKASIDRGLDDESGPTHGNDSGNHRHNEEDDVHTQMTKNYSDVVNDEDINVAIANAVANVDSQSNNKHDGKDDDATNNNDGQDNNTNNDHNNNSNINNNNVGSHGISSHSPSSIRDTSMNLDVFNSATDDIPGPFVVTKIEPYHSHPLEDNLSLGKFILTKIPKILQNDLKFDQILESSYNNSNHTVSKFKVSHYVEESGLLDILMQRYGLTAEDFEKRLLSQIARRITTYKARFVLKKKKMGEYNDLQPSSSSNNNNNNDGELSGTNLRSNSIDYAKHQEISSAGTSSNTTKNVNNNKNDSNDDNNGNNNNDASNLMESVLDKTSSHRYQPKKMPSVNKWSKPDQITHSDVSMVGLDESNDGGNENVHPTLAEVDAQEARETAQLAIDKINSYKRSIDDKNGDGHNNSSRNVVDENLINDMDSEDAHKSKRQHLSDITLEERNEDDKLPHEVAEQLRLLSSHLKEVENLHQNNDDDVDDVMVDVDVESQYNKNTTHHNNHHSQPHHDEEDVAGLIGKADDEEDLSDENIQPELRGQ
In short: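 Bound GST-tagged yeast transcription factors, applied at about 100-200 nM to double-stranded universal all-10-mer Agilent arrays, were detected with fluorescent anti-GST. Scans were normalised with masliner. A modified Wilcoxon-Mann-Whitney statistic, the E-score, was assigned to each ungapped eight-base word pooled with its reverse complement by the Universal PBM Analysis Suite.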

Sequence | PBM E-score
ACGCATAA | 0.175
GGCCCTCA | -0.125
AGCCCTGG | -0.171
GCCACTAC | -0.112
GCAACGGC | 0.186
CTTTCGAC | 0.0853
ATACGGGG | 0.172
GGCACGTA | -0.0676
AGTCGGAG | -0.311
AGCTGGCA | -0.0797
AGGGGGTA | -0.358
CCTTGCGA | -0.104
ATCAGAAC | -0.00643
AAACTGGC | -0.23
TAGCCAAA | 0.123
ATATTGCA | 0.0736
TGACCCAA | 0.0427
CTCTAGTC | -0.285
ATTATACC | 0.217
CAACCGTC | 0.0659
ACTTTCAC | 0.0339
CCTAGCGC | -0.132
AACACACT | 0.0283
AGTGCATG | -0.0169
GCCTTCAA | -0.248

Looked up above:
Value for CTTTCGAC under PBM E-score: 0.0853
Value for AGTCGGAG under PBM E-score: -0.311
Value for AGCCCTGG under PBM E-score: -0.171
Value for ATCAGAAC under PBM E-score: -0.00643
Value for GGCACGTA under PBM E-score: -0.0676

(next part)

Sequence | PBM E-score
ATATCGCC | 0.269
ACAAAGCT | -0.164
GTTTGATA | 0.125
CGCAATTA | -0.149
AAAGTACG | 0.153
GTCATACA | -0.0367
AATAGTAG | 0.109
CCATTGAA | 0.00146
CTATCAGC | 0.135
GTCGGCTA | 0.112
GGATCGTA | 0.29
GAGGGATA | 0.0156
CTAACCCC | -0.249
ACACTCCA | -0.0399
GGATCTAA | -0.161
ATTACGTG | 0.176
CGCTTACG | -0.0746
AACTAGCG | 0.108
AATCTGTG | -0.106
AGGCGTGG | -0.332
AACCAGTC | -0.131
CCAAGCAG | -0.198
CTCATGAC | 0.245
AGACGGCG | 0.306
TACGGGCA | 0.0592

Sequence | PBM E-score
ACGCACAT | -0.00733
ATAGATAG | 0.0667
CTCGCGAC | 0.238
CCAAGACA | -0.0658
AGTCTTTA | -0.294
AGTATCAT | 0.286
CTTGACTA | 0.0483
AGCTGGAA | -0.193
ATTCCTCA | 0.0866
ACACGTCA | 0.151
CCGAAACA | 0.0637
CTTGGCTA | 0.0251
ACGTTGCA | 0.195
GAAGACGA | 0.207
ATTCGAAT | 0.0643
ATGCCGAA | 0.051
CCACCCTC | -0.0751
CCCAGGAA | -0.188
ACTATTTG | 0.119
AGTGGACG | 0.099
GACCCCGC | -0.114
AACCTGTA | -0.155
CGGAGGCA | -0.19
CGACAGAC | -0.156
GTAACTAC | 0.117

Sequence | PBM E-score
AAATCTCT | -0.00019
GCGCCTTA | 0.00196
AACCACAA | -0.061
CGAAGCCA | -0.102
AGGTACAA | 0.0674
ATTCCGAC | -0.174
AATGACTG | -0.127
AACTGAGG | -0.0999
GGTGAACA | -0.0983
AGCAATTA | 0.0411
CCTGGACG | 0.183
AACTAGGT | 0.0275
ACGTTCCA | 0.0987
ACGCAATC | -0.303
TAGAGTGA | 0.248
CATGTAAC | 0.043
ACCTGCTC | -0.0149
CCCCACTC | -0.0593
AGCTGGCG | -0.276
ACCAGATA | 0.0162
AGACTAAT | -0.0707
CACCAATA | 0.0015
GCAATTCA | -0.0514
GAGCCGTA | 0.347
CGCACGTC | -0.0391

Sequence | PBM E-score
AAGTCTAT | 0.0605
CATTTGGG | -0.141
CAAAGGAA | 0.0705
CTGGGGTC | -0.179
CGCTATTA | 0.232
AGGTATCG | 0.106
TATGCGAA | 0.112
CGTTGTAG | 0.102
AACGCTTA | -0.101
GACATCTC | 0.137
AAGAGGTA | -0.0778
ACCGTCAC | 0.158
CTTAGGCA | -0.0659
ATTTACCG | 0.112
GTCCGGTA | 0.00344
CGTATTTC | 0.316
GGCTCTTA | -0.0949
CATATGCG | 0.00167
AACCTCAA | -0.0547
CGAGGACG | -0.0121
GTACCAAA | 0.259
GGGTTGTA | -0.00826
ATGGATCC | 0.0135
GATTCGAC | -0.0487
ATGGGGTA | -0.00916

Sequence | PBM E-score
TCGGAAGA | -0.183
TCCATCGA | -0.0512
TGCGCGAA | -0.00725
TCTACTAA | 0.0564
CAATACCA | 0.114
GGTAGAGA | -0.143
AAATCGCG | 0.157
ACTTTACT | -0.107
ACGGAGCA | 0.138
ACGATCAA | 0.199
GAGATCGA | 0.0422
GCTGACCC | -0.239
CAACTGGC | -0.0854
CCTCCACC | -0.339
GGGCTTAA | -0.19
TAGTAGAA | -0.00786
ATTGTAGA | 0.0207
GCGGCGAA | -0.106
AAGCCTTA | -0.284
AAAGACTG | -0.375
GTCGTGCA | 0.374
AGGGTAGG | -0.0947
AGTGGTTA | 0.0354
CCATACGC | 0.0588
ATACAGTG | 0.011

Quoted from the results shown for reference:
Sequence | PBM E-score
AAATCGCG | 0.157
ACTTTACT | -0.107
ACGGAGCA | 0.138
ACGATCAA | 0.199

(continued)

Sequence | PBM E-score
ACTTGGTA | -0.00051
CTGGGGAC | -0.228
GGGGTACC | -0.181
AGTTATTC | -0.0527
AAGTAACA | -0.0471
AAAAAGGT | 0.0838
GCCTTGAC | -0.135
ACTACGAG | 0.133
CCGCTGAA | -0.153
CCTGCTCA | 0.0193
ACTCATAC | 0.153
CTTAGACA | -0.0898
AATCGCAT | 0.11
TATTTGAA | -0.00117
CCAACACA | 0.096
ATTGAAGC | -0.0707
AAGGTCTA | -0.112
CCTTAGCG | -0.104
GCCCAGAA | -0.225
CTAGTAGC | -0.0218
CCAGCGGC | -0.175
CTCATCTC | 0.169
GCGCGCAC | 0.074
CGGTGACG | 0.235
TACTAATA | 0.0826

Sequence | PBM E-score
GGCATGAC | 0.219
ATAACTAT | 0.0689
CGTGTGTA | 0.092
AATGCGTG | -0.0749
AATCCGGA | -0.0986
CGCCTCAA | -0.137
CACTTTTA | 0.107
AGTGAGTA | 0.169
ACGCCGCC | -0.205
AACGCGAA | -0.0539
GTCGAGTA | -0.0255
GTTAGACA | 0.249
GATAATCA | 0.192
AATTGAAA | 0.116
TGTAGTAA | 0.126
CATCATTC | 0.211
ATGTGAAG | 0.164
ATTCTGAC | 0.146
CCAGAATC | -0.0251
GCTCTAAC | -0.0444
CACTGAGG | -0.0917
GCAGCCAA | -0.0692
CATGGGGC | -0.336
CAGAAGTA | -0.0626
CTCGGCTC | -0.0525

Sequence | PBM E-score
AGGTAAGC | -0.251
TCAACCCA | -0.0217
ATGAGTGA | 0.177
TCAAAAAA | 0.145
AGTGATAG | 0.303
TGCACGAA | 0.368
TCAGTGGA | -0.163
CCAGCCGG | -0.236
ACAAACGA | 0.191
ATCTGCAT | 0.0571
ACTGTTAT | 0.0955
AAGTAACT | 0.196
CGAAATCA | 0.226
CGAGAAGA | 0.122
GCCTCACA | 0.0334
ATCGACCG | -0.122
CGAGTTGC | -0.159
CTGGGCGA | -0.0445
AAGGCGAT | 0.0786

Rewritten as tab-separated lines: entries from further up
Sequence	PBM E-score
ATGAGTGA	0.177
TCAAAAAA	0.145
ATCTGCAT	0.0571
GCCTCACA	0.0334
CTGGGCGA	-0.0445
